# In PMC12281766, “Inhibition of FAM19A5 reverses synaptic loss and cognitive decline in mouse models of Alzheimer’s disease” (Alzheimer's Research & Therapy, 2025):
# Protein sequences, listed by entry. Tags and fused reporters are not part of them. Lines headed by an entry give the natural chain unless they say otherwise; changes in a name come on top. Residues count along the entry.
# UniProt Q7Z5A7, residues 44-132: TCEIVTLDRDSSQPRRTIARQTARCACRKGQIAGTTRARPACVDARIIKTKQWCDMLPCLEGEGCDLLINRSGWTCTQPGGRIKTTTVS
# UniProt Q9NT99: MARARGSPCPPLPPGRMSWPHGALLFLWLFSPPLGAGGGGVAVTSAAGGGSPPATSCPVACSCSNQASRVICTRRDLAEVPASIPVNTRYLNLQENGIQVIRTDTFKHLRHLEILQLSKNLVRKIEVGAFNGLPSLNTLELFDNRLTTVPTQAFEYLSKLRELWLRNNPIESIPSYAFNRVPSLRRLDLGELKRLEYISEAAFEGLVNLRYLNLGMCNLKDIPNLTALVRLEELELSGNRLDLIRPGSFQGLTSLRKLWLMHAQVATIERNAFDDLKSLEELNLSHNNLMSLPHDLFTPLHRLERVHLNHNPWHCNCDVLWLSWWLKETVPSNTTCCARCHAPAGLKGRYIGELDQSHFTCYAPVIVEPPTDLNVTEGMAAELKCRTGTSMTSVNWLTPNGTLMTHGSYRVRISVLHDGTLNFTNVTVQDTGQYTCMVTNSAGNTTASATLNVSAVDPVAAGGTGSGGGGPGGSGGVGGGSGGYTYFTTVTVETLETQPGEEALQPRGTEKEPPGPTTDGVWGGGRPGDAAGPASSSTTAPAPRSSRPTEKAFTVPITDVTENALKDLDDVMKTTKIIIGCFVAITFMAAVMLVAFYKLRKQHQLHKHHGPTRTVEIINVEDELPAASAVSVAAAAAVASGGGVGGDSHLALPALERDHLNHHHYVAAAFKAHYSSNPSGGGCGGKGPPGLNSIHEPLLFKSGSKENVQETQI
# No constants are given. Whether binding was seen depends on the method and setting. In cells and extracts the contact can be indirect. Binding calls can cover weak binding; strength is not graded here.
# Molecular target: FAM19A5 in human cerebrospinal fluid (human (endogenous in CSF)) (UniProt Q7Z5A7)
# Test: co-IP; pooled normal human CSF; precipitated with monoclonal anti-FAM19A5 antibodies (C-A5-Ab or N-A5-Ab), blotted for LRRC4B and FAM19A5
substance,measurement,value
LRRC4B (leucine-rich repeat-containing protein 4B) in human cerebrospinal fluid (from UniProt Q9NT99),binding,binds
